The entries are a selection whose mix differs from that of the whole data set. At the low end of the ranking, values are background and their order means little.
Each sequence was assayed against SPI1 (UniProt P17947) (assay: DAPPL (digital affinity profiling via proximity ligation, sequencing)). Conditions: 10 mM Tris-HCl pH 7.5, 50 mM NaCl, 1 mM DTT, 4% glycerol, room temperature, 30 min; GST-TFs on glutathione beads, 16-mer random dsDNA library, 0.1% …; high values mean tight binding; double strand, one strand shown; scale: fold enrichment (6-mer frequency, TF over GST control).

Sequence	binding signal
CGGGTA	0.737
TGTCGT	0.824
CAGGCG	0.271
CGTAGG	0.655
GAGTAT	0.626
AGAACG	0.426
GGGAGA	0.336
GGTGGG	0.624
AGAGGG	0.745
GAAGGC	0.868
GGTGTC	0.674
GGGGGC	0.567
AGTCGC	0.593
CGGAGT	0.341
AGCGTG	0.364
TCGGAG	0.191
CTCGGA	0.825
CCCGGG	0.789
ACGTAG	0.757
CGTGAT	0.439

Sequence	binding signal
AGCGAG	0.642
GACCCT	0.813
CAGGCT	0.848
ACGTGA	0.251
GTGATC	0.779
ATCAGT	0.779
GAGTCA	0.252
AAGCGT	0.863
CCAGCC	0.771
GATTGT	0.775
CAGAGA	0.612
AGCGTA	0.85
AGACAT	0.836
AGTCCG	0.621
GCGTGC	0.788
GGCCCA	0.859
GGCTGA	0.696
TAGGAC	0.755
GTTGAG	0.647
GTCGAG	0.462
